# Source: PubChem BioAssay AID2685 (National Center for Advancing Translational Sciences (NCATS), 2010)
# This is one part of the list. Further columns of the screen follow, without active or inactive calls. Most of these compounds were active or inconclusive in the main read-out, so they are no random draw. Words in brackets tell the shape of the fitted curve; partial curves, single points and poor fits give uncertain potencies.
# Assay: qHTS Assay for Lipid Storage Modulators in Drosophila S3 Cells;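 on cell number change: cells counted by Cell Tracker Red CMTPX staining in the red channel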
# Conditions: BODIPY lipid droplet fluorescence, 18-24 h; for cell number change: measured here: cell count max response, cells fed with added oleic acid
# Outline: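 Drosophila S3 cells got compounds at several concentrations plus oleic acid (400 uM solution). Laser-scanning cytometry with 488 nm excitation read lipid droplets at 500-530 nm and cells at 575-640 nm. Percent activity was relative to 20 uM Triacsin C.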
# [1] = measured here: cell number channel AC50, cells fed with added oleic acid
# [2] = measured here: lipid fluorescence (Fed channel) AC50, cells fed with added oleic acid
compound,measurement,setting,value
COc1cc(OC)cc(C(=O)NCCNC(=O)c2ccccc2)c1,cell number change,,-12.8%
CC(C)c1ccc(C2=NN(c3ccccc3)C(=O)CC2)cc1,cell number change,,-36.7%
same,AC50,[1],"18.4 µM [falling, single point]"
same,AC50,[2],"14.6 µM [falling, single point]"
COC(=O)[C@@H](C)NC(=O)c1ccc2oc(CCc3ccccc3)nc2c1,cell number change,,-3.69%
same,AC50,[2],"0.00461 µM [falling, full curve, poor fit]"
COc1ccc(CN(C)C(=O)CNC(=O)c2cccs2)c(OC)c1,cell number change,,-12.3%
Cc1ccc(-c2cc(C(=O)N/N=C\c3cnn(C)c3C)c3ccccc3n2)cc1C,AC50,[1],"0.0651 µM [rising, full curve, poor fit]"
same,AC50,[2],"3.66 µM [rising, partial curve]"
N/C(CSc1ccccn1)=N\OCc1c(Cl)cccc1Cl,cell number change,,4.97%
same,AC50,[2],"2.59 µM [rising, single point]"
O=C(O)/C=C/c1cn(-c2ccccc2)nc1-c1ccc(-c2ccc([N+](=O)[O-])cc2)o1,cell number change,,26.3%
same,AC50,[2],"20.6 µM [rising, single point]"
CCOC(=O)N1CCN(C(=O)CS(=O)(=O)c2cn(Cc3cccc(F)c3)c3ccccc23)CC1,AC50,[1],"2.91 µM [rising, single point]"
COCCn1c(=O)[nH]c2cc(C(=O)N3CCN(c4ccccc4)CC3)ccc2c1=O,cell number change,,-1.28%
same,AC50,[2],"3.66 µM [falling, full curve]"
N#CCC(=O)N/N=C/c1ccc(OCc2ccccc2)cc1,cell number change,,-20.3%
Cc1cccc(OCCCC(=O)NCC(=O)Nc2cccc(C)c2C)c1,cell number change,,-12.3%
same,AC50,[1],"0.00651 µM [falling, full curve, poor fit]"
Cc1ccc(-n2c(SCC(=O)NCC3CCCO3)nc3c(c2=O)SCC3)cc1 (stereo not given),cell number change,,-4.32%
same,AC50,[2],"4.11 µM [falling, single point]"
Cc1c(N=C2NC(=O)/C(=C/c3cccc([N+](=O)[O-])c3)S2)c(=O)n(-c2ccccc2)n1C,cell number change,,-13%
COc1cccc2cc(C(=O)Nc3cccc(C)n3)c(=O)oc12,cell number change,,32.9%
same,AC50,[1],"29.1 µM [rising, single point]"
same,AC50,[2],"29.1 µM [rising, single point]"
c1ccc(OCCN2C3=NCCN3c3ccccc32)cc1,cell number change,,-21.2%
same,AC50,[1],"0.0058 µM [falling, full curve, poor fit]"
CCn1c(SCC(=O)OC(C)C)nnc1-c1ccccc1,cell number change,,10.7%
same,AC50,[2],"0.366 µM [falling, full curve, poor fit]"
CCOc1ccc(CCNC(=O)c2cc3sc(Cl)cc3n2C)cc1OCC,cell number change,,-26.7%
COc1ccc(S[C@@H](CCN2CC[C@H](C)CCC2=O)c2ccccc2)cc1,cell number change,,-14.2%
same,AC50,[2],"0.92 µM [rising, partial curve, poor fit]"
O=C(CCN1C(=O)c2ccccc2C1=O)Nc1sc2c(c1C(=O)NCC1CCCO1)CCC2 (stereo not given),cell number change,,119%
same,AC50,[1],"20.6 µM [rising, single point]"
same,AC50,[2],"29.1 µM [rising, single point]"
CCC(=O)Nc1cc2nn(-c3ccc(OC)cc3)nc2cc1C,cell number change,,16.2%
same,AC50,[2],"25.9 µM [rising, single point]"
COc1ccc(C(=O)NCc2nnc(SCC(=O)NCCc3ccccc3)o2)cc1,cell number change,,-8.26%
same,AC50,[1],"1.84 µM [rising, partial curve]"
same,AC50,[2],"29.1 µM [falling, single point]"
CCN(CC)CCNCC(=O)N1c2ccccc2CCc2ccc(NC(=O)OC)cc21,cell number change,,-0.676%
COc1ccc(-c2nnc(-c3ccc(N(C)C)cc3)o2)cc1,cell number change,,9.93%
O=C(CSc1nc(-c2ccco2)cc(C(F)(F)F)n1)N1CCN(Cc2ccccc2)CC1,cell number change,,-36.6%
same,AC50,[1],"18.4 µM [falling, single point]"
same,AC50,[2],"29.1 µM [falling, single point]"
O=C(Nc1nnc(C(F)(F)F)s1)c1ccc(N2C(=O)C3C4C=CC(C4)C3C2=O)cc1 (stereo not given),cell number change,,-44.2%
same,AC50,[1],"23.1 µM [falling, single point]"
same,AC50,[2],"18.4 µM [falling, partial curve]"
CC(C)C(=O)NC(=S)Nc1ccc(CN2CCOCC2)cc1,cell number change,,-19.8%
same,AC50,[2],"29.1 µM [falling, single point]"
O=C(NC1CCCCCC1)C(=S)NC1CCCCC1,cell number change,,-17.5%
same,AC50,[2],"29.1 µM [rising, single point]"
COC(=O)c1c(NC(=O)c2ccco2)sc2c1C(C(=O)OC)CC2 (stereo not given),cell number change,,-7.7%
same,AC50,[2],"3.66 µM [rising, partial curve]"
O=C(Cc1ccccc1)NCCSCc1ccccc1,cell number change,,6.35%
COCc1cccc(C2=CC(=O)C[C@H](c3ccc(F)cc3)C2)c1,cell number change,,10.1%
same,AC50,[2],"0.00461 µM [rising, full curve, poor fit]"
CC1CCc2c(sc(NC(=O)CSc3ncn[nH]3)c2C#N)C1 (stereo not given),cell number change,,-0.387%
same,AC50,[2],"0.116 µM [falling, full curve, poor fit]"
COc1cc(C2N3CC4(C)CN2CC(C)(C3)C4)ccc1O (stereo not given),cell number change,,17.2%
same,AC50,[1],"6.51 µM [falling, partial curve]"
CN(c1ccc(C(=O)Nc2ccc(F)cc2F)cc1)S(=O)(=O)c1ccccc1,cell number change,,2.93%
same,AC50,[2],"29.1 µM [rising, single point]"
Cc1[nH]c2ccccc2c1C(=O)C(=O)NCCc1ccc(S(N)(=O)=O)cc1,AC50,[1],"3.26 µM [falling, single point]"
same,AC50,[2],"2.91 µM [falling, single point]"
O=C(/C=C/c1ccc(OC2CSC2)cc1)c1ccccc1,cell number change,,0.287%
same,AC50,[1],"0.00651 µM [rising, full curve, poor fit]"
NC(=O)C1CCN(CC(=O)Nc2cc(S(=O)(=O)N3CCOCC3)ccc2N2CCCC2)CC1,cell number change,,9.9%
same,AC50,[2],"0.0291 µM [rising, full curve, poor fit]"
COc1ccc(C(=O)CSc2n[nH]c(N)n2)cc1,cell number change,,40.8%
same,AC50,[1],"0.164 µM [rising, partial curve]"
CCOc1ccc2nc(NC(=O)Nc3ccccc3)sc2c1,cell number change,,-22.2%
same,AC50,[2],"2.91 µM [rising, partial curve]"
Cc1cc(-c2ccccc2)cc(-c2ccccc2)[n+]1C,cell number change,,-10%
same,AC50,[1],"4.11 µM [rising, single point]"

# Already shown: an excerpt of the list.
compound,measurement,setting,value
Cc1[nH]c2ccccc2c1C(=O)C(=O)NCCc1ccc(S(N)(=O)=O)cc1,AC50,[2],"2.91 µM [falling, single point]"
O=C(/C=C/c1ccc(OC2CSC2)cc1)c1ccccc1,cell number change,,0.287%
same,AC50,[1],"0.00651 µM [rising, full curve, poor fit]"
